This note sets out measurements from patent US20150198603A1 (TORAY INDUSTRIES, published 2015).

No constants are given. Whether binding was seen depends on the method and setting. Binding calls can cover weak binding; strength is not graded here.

The test addresses cat CAPRIN-1 in cat breast cancer tissues (cat). Briefly: immunohistochemical staining of frozen cat breast cancer tissue sections, 10 µg/mL antibody.

B1: mouse anti-human CAPRIN-1 monoclonal antibody #14 (antibody, V domains shown)
VH: GAELVKPGASVKLSCTASGLNIRDIYMHWVKQRPEQGLEWIGKIDPANGNTKYDPKFQGKATITADTSSNTAYVQLSSLTSEDTAVYYCAGTGDYWGQGTTVTVSS
VL: GTCGDIVMSQSPSSLAVSAGEKVTMSCKSSQSLLNSRTRKNYLAWVQHKPGQSPRLLIYWASTRESGVPDRFTGSGSGTDFTLTISSVQAEDLAVYYCRQSYNLVTFGAGPS
Take B1: the binding result is on record as “binds”.
